Molecules are shown by their SMILES. The list shows a part of the results. Further columns of the screen follow, without active or inactive calls. Compounds called inactive in the main read-out are mostly missing here. The note in brackets gives the kind of curve behind each potency; many fits are weak.

The assay is described as follows: Cell signaling CRE-BLA (Fsk stim). The settings on record: CHO CRE-bla reporter (cAMP response element driving beta-lactamase), forskolin EC10, beta-lactamase ratio; measured here: 460 nm blue channel. The essentials: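 AC50 values, positive or negative, reflect shifts in EC10 NKH 477-induced CRE-bla reporter activity in CHO cells. Incubation lasted 3 h at 37 °C before CCF4 substrate (2 h, room temperature) and ratiometric 460/530 nm reading.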
Turning to `COc1ccc(C(=O)N2c3cc4c(cc3C(C)=CC2(C)C)OCO4)cc1`, the half-maximal activity concentration (AC50) is 12.6 µM [falling, partial curve].

Turning to `COc1ccccc1NC(=O)CSc1ncnc2c1oc1ccccc12`, the AC50 is 0.501 µM [rising, full curve].

As to `COc1ccc(OC)c2sc(N3CCCCC3)nc12`, the AC50 is 10 µM [rising, single point].

As for `Cc1cccc(NC(=O)CN2CCCN(S(=O)(=O)c3ccc(Br)s3)CC2)c1`, the AC50 is 0.398 µM [falling, partial curve].

Turning to `Cc1c(NC(=O)C(C)Sc2nnc(-c3ccccc3)o2)c(=O)n(-c2ccccc2)n1C` (stereo not drawn), the AC50 was 0.631 µM [falling, full curve].

Consider `O=C(c1ccc(=O)n(Cc2ccccc2)n1)N1CCN(C/C=C/c2ccccc2)CC1`, for which the concentration at half-maximal activity (AC50) is 1.26 µM [rising, partial curve].

Regarding `COc1ccc(-c2[nH]ncc2-c2ccc3c(c2)OCCO3)c(O)c1`, the AC50 was 0.316 µM [falling, full curve].

As for `O=c1c(-c2cccs2)nc2cnc(Oc3ccccc3)nc2n1Cc1cccs1`, the concentration at half-maximal activity (AC50) was 1.26 µM [rising, partial curve].

Take `O=C(c1nc2n(n1)C(c1ccc(Cl)cc1)C=C(c1ccccc1)N2)N1CCOCC1` (stereo not drawn): the AC50 is 15.8 µM [rising, single point].

In the case of `COc1ccc(CCNC(=O)c2cc3ccccn3n2)c(OC)c1OC`, the AC50 was 10 µM [rising, single point].

For `Cc1nc(N2CCOCC2)c2nc(-c3ccccc3)n(CCCN3CCOCC3)c2n1`, the AC50 was 10 µM [rising, partial curve].

For the compound `CN1CCN(c2ncc3nc(-c4cc(F)cc(F)c4)c(=O)n(Cc4cccs4)c3n2)CC1`, the AC50 is 2 µM [rising, full curve].

For the compound `COc1ccc(C(=O)COC(=O)CN2CC(=O)Oc3ccccc32)cc1Br`, the AC50 is 2.51 µM [falling, full curve].

With `CN(C)c1cccc(C(=O)Nc2cccc(F)c2)c1`, the AC50 is 0.00398 µM [falling, full curve, poor fit].

For `CC1CCN(S(=O)(=O)c2ccc3c(c2)oc(=O)n3CC(=O)N2c3ccccc3CC2C)CC1` (stereo not drawn), the half-maximal activity concentration (AC50) was 7.94 µM [falling, partial curve].

On to `O=C(c1cnc(N2CCN(c3ncccn3)CC2)c2ccccc12)N1CCN(c2ccccn2)CC1`, for which the AC50 was 5.01 µM [rising, single point].

With `COC(=O)c1ccc(Nc2cc(C)nc3ncnn23)cc1`, the AC50 was 25.1 µM [rising, single point].

For `CCn1cc(C(=O)NCc2ccccn2)c(=O)c2cc(S(=O)(=O)N3CCCCC3)ccc21`, the AC50 was 20 µM [rising, single point].

In general, AC50 refers to the concentration at which the activity in the assay is half-maximal.
